This is one part of the list. Further columns of the screen follow, without active or inactive calls. The list favours compounds with an active or inconclusive main result. Words in brackets tell the shape of the fitted curve; partial curves, single points and poor fits give uncertain potencies.
Test: qHTS Assay for Lipid Storage Modulators in Drosophila S3 Cells;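 for cell number change: cells counted by Cell Tracker Red CMTPX staining in the red channel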
Settings: BODIPY lipid droplet fluorescence, 18-24 h; for cell number change: measured here: cell count max response, cells fed with added oleic acid
In short: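 Laser-scanning cytometry quantifies lipid droplet accumulation (500–530 nm total intensity; droplet/cell object ratio) in oleic acid-fed (400 uM added) Drosophila S3 cells treated with a concentration series. 20 uM Triacsin C defined 100% inhibition.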

[1] = measured here: cell number channel AC50, cells fed with added oleic acid
[2] = measured here: lipid fluorescence (Fed channel) AC50, cells fed with added oleic acid

Row | SMILES | cell number change [%] | AC50 [1] | AC50 [2]
1 | N#CC1=C(N)OC2=C(CCc3ccccc32)C1c1ccccc1 (centres undefined) | -8.76 |  | 
2 | CCCC(=O)Nc1ccccc1NC(=O)c1cc(OC)c(OC)c(OC)c1 |  | 0.184 µM [falling, full curve, poor fit] | 6.51 µM [falling, single point]
3 | COc1ccccc1NC(=O)c1ccccc1Nc1ccccc1 |  | 0.58 µM [rising, single point] | 
4 | CC(=O)c1ccc(NC(=O)c2ccc(S(=O)(=O)N3CCCC3)cc2)cc1 | 12 |  | 2.31 µM [rising, partial curve, poor fit]
5 | CCC(NC(C)C)C(O)c1ccc(O)c2[nH]c(=O)ccc12 (centres undefined) | -14.1 |  | 0.116 µM [falling, full curve]
6 | COc1ccccc1CNC(=O)CCNS(=O)(=O)c1ccc2[nH]c(=O)oc2c1 | -7.37 |  | 29.1 µM [rising, single point]
7 | COc1cc(OC)c(NC(=O)c2ccoc2C)cc1Cl | 5.94 |  | 9.2 µM [rising, partial curve]
8 | CC1(C)CC2(CC(C)(C)NC(=O)N2)NC(=O)N1 | -35.4 | 0.291 µM [falling, full curve] | 0.651 µM [falling, full curve]
9 | CC[C@@]12C(=O)N(c3cccc(F)c3)C(=O)N1[C@H](c1cccc(C)c1)[C@@H]1C(=O)N(Cc3ccccc3)C(=O)[C@@H]12 | 12.3 |  | 6.51 µM [rising, single point]
10 | COc1ccc([N+](=O)[O-])cc1NC(=O)Cc1ccccc1Cl |  |  | 8.2 µM [rising, partial curve]
11 | N#Cc1nc(COc2ccc(Cl)cc2Cl)oc1N1CCN(c2ccccc2)CC1 | 19.5 | 0.291 µM [rising, full curve, poor fit] | 29.1 µM [rising, single point]
12 | CCCn1c(SCC(=O)Nc2ccccc2Cl)nc(O)cc1=O |  | 6.51 µM [rising, partial curve, poor fit] | 
13 | O=C(NC1CCCCC1)c1cc(-c2ccc(Cl)cc2)on1 | 21.8 |  | 
14 | Cc1cc(C)cc(NC(=O)CSc2nncn2-c2ccccn2)c1 | 15 |  | 29.1 µM [rising, single point]
15 | CCCCOc1ccc(-c2cnc3ccccc3n2)cc1 | -4.04 | 0.517 µM [falling, full curve, poor fit] | 0.58 µM [falling, partial curve]
16 | COC(=O)c1ccc(NC(=O)C[n+]2ccccc2C)cc1 | 7.97 |  | 6.51 µM [rising, single point]
17 | COc1ccccc1CC(NC(C)=O)C(=O)NC1CCN(S(=O)(=O)c2ccc(NC(C)=O)cc2)CC1 (centres undefined) | 10.3 |  | 5.17 µM [rising, single point]
18 | Cc1c(NC(=S)NC(=O)C2CCCCC2)c(=O)n(-c2ccccc2)n1C | -4.03 |  | 29.1 µM [rising, single point]
19 | O=C(COC(=O)c1c(Cl)ccc(Cl)c1Cl)NC(=O)NCc1ccccc1 | 30.7 | 0.92 µM [rising, partial curve] | 18.4 µM [rising, single point]

Row | SMILES | cell number change [%] | AC50 [1] | AC50 [2]
20 | O=C(Nc1ccc2nc(-c3cccs3)c(-c3cccs3)nc2c1)N1CCOCC1 |  | 2.31 µM [rising, partial curve] | 0.82 µM [rising, single point]
21 | N#Cc1ccc(S(=O)(=O)N2CCN(c3ncccn3)CC2)cc1 | -47.7 | 0.92 µM [falling, full curve] | 0.0731 µM [falling, full curve, poor fit]
22 | COc1ccc(Cl)cc1NC(=O)COC(=O)C1CC1 | 2.12 |  | 0.0058 µM [rising, full curve, poor fit]
23 | Cc1ccc2cc(C)c3nnc(SCC(=O)NCc4ccco4)n3c2c1 | -8.51 |  | 
24 | COC(OC)c1ccnc(-c2ccc(OC(C)=O)cc2)n1 | 0.911 | 2.31 µM [rising, single point] | 2.31 µM [rising, single point]
25 | O=C1OC(Cc2ccccn2)C(O)=C1C1=NCCCN1 (centres undefined) | 61.1 | 29.1 µM [rising, single point] | 20.6 µM [rising, partial curve]
26 | Cc1ccc(NC(=O)C2SC(=Nc3ccccc3)C(C(=O)Nc3ccc(Cl)cc3)=C2N)cc1 (centres undefined) | -18.7 |  | 0.126 µM [falling, full curve, poor fit]
27 | O=C(N/N=C/c1ccccn1)c1cc(-c2ccc(Br)s2)[nH]n1 | -3.85 |  | 
28 | Cc1cccc(C)c1Nc1nnc(SCC(=O)NC2CCS(=O)(=O)C2)s1 (centres undefined) | -24.7 |  | 
29 | O=C(CCn1c(=O)oc2ccccc21)N1CCN(C(c2ccccc2)c2ccccc2)CC1 | 12.9 |  | 
30 | Cc1ccc(CN2CCSc3ccc(C(=O)N4CCOCC4)cc32)cc1 | -14.2 |  | 29.1 µM [falling, single point]
31 | Cc1cc(/C=N/O)c(C)n1-c1ccccc1 | 5.35 |  | 5.8 µM [rising, partial curve, poor fit]
32 | COc1ccc(N2CCN(C(=O)CSc3nnc4c(C)cc5cc(C)ccc5n34)CC2)cc1 | 8.98 |  | 0.58 µM [rising, full curve]
33 | Cc1cc(N/N=C/c2ccc(O)cc2O)nc(-c2ccccc2O)n1 | -35 | 0.82 µM [rising, partial curve, poor fit] | 23.1 µM [falling, partial curve]
34 | O=C1OC(c2ccccc2)=C/C1=C/N1CCCCC1 | -27.5 |  | 29.1 µM [falling, single point]
35 | CCCNC(=O)NC(=O)COC(=O)c1ccc(OC)c(S(=O)(=O)N2CCCc3ccccc32)c1 | -34.7 |  | 
36 | CCCC(=O)NC(NC(=S)Nc1c(C)n(C)n(-c2ccccc2)c1=O)C(Cl)(Cl)Cl (centres undefined) | -8.18 |  | 6.51 µM [falling, single point]
37 | CCc1nc2ccc(C(=O)N3CCN(c4ccccc4F)CC3)cc2nc1CC | 11.8 |  | 29.1 µM [rising, partial curve]
38 | CC(C)c1ccc(/C=C2\SC(=O)N(CC(=O)NCCCn3ccnc3)C2=O)cc1 | -4.58 |  | 29.1 µM [rising, single point]

Structures shown so far with a furan ring, fused or not:
Row | SMILES | cell number change [%] | AC50 [1] | AC50 [2]
7 | COc1cc(OC)c(NC(=O)c2ccoc2C)cc1Cl | 5.94 |  | 9.2 µM [rising, partial curve]
23 | Cc1ccc2cc(C)c3nnc(SCC(=O)NCc4ccco4)n3c2c1 | -8.51 |  | 

Reference: PubChem BioAssay AID2685 (National Center for Advancing Translational Sciences (NCATS), 2010)
